The data set is described as follows: general procedure: Fmoc solid-phase peptide synthesis; Rink Amide MBHA resin (substitution=0.72 mmol/g, Novabiochem); DIC/HOBt. The note with it: whole synthesis, analytical HPLC, scale of the general procedure 0.0675 mmol.
In the case of H-Apc-D-1Nal-D-1Nal-Phe-Apc-NH2, the “final HPLC purity” value came to 95%.

Regarding H-Apc-D-1Nal-D-1Nal-Phe-Lys-NH2, the “final HPLC purity” value turned out to be 99%.

Consider H-Apc-D-1Nal-D-2Nal-Phe-Apc-NH2, for which the “final HPLC purity” value is reported as 96%.

Regarding H-Apc-D-1Nal-D-Trp-2Thi-Apc-NH2, the “final HPLC purity” value is given as 97%.

For the substance H-Apc-D-1Nal-D-Trp-2Thi-Lys-NH2, the “final HPLC purity” value came to 99%.

As for H-Apc-D-1Nal-D-Trp-2Thi-NH2, the “final HPLC purity” value was found to be 98%.

As to H-Apc-D-1Nal-D-Trp-Phe-Apc-NH2, the “final HPLC purity” value is reported as 98%.

As for H-Apc-D-1Nal-D-Trp-Phe-Lys-NH2, the “final HPLC purity” value was 98%.

In the case of H-Apc-D-1Nal-D-Trp-Phe-NH2, the “final HPLC purity” value is listed as 99%.

In the case of H-Apc-D-1Nal-D-Trp-Taz-Apc-NH2, the “final HPLC purity” value was 99%.

As for H-Apc-D-1Nal-D-Trp-Taz-Lys-NH2, the “final HPLC purity” value was 99%.

On to H-Apc-D-1Nal-D-Trp-Taz-NH2, for which the “final HPLC purity” value came out at 99%.

Consider H-Apc-D-2Nal-D-Trp-2Thi-NH2, for which the “final HPLC purity” value is reported as 95%.

For the substance H-Apc-D-2Nal-D-Trp-Phe-Lys-NH2, the “final HPLC purity” value was determined as 98%.

With H-Apc-D-2Nal-D-Trp-Taz-NH2, the “final HPLC purity” value is 97%.

With H-Apc-D-Bal-D-1Nal-Phe-Apc-NH2, the “final HPLC purity” value is listed as 96%.

On to H-Apc-D-Bal-D-1Nal-Phe-Lys-NH2, for which the “final HPLC purity” value was found to be 99%.

For the substance H-Apc-D-Bal-D-2Nal-Phe-Apc-NH2, the “final HPLC purity” value came to 94%.

In the case of H-Apc-D-Bal-D-2Nal-Phe-Lys-NH2, the “final HPLC purity” value is 98%.

For the substance H-Apc-D-Bal-D-Trp-2Thi-Apc-NH2, the “final HPLC purity” value was found to be 98%.

In the case of H-Apc-D-Bal-D-Trp-2Thi-Lys-NH2, the “final HPLC purity” value was determined as 98%.

Consider H-Apc-D-Bal-D-Trp-2Thi-NH2, for which the “final HPLC purity” value came out at 97%.

On to H-Apc-D-Bal-D-Trp-Phe-Apc-NH2, for which the “final HPLC purity” value turned out to be 98%.

As to H-Apc-D-Bal-D-Trp-Phe-Lys-NH2, the “final HPLC purity” value was 99%.

For H-Apc-D-Bal-D-Trp-Phe-NH2, the “final HPLC purity” value was determined as 99%.

Take H-Apc-D-Bal-D-Trp-Taz-Apc-NH2: the “final HPLC purity” value is 98%.

For the substance H-Apc-D-Bal-D-Trp-Taz-Lys-NH2, the “final HPLC purity” value amounted to 99%.

As for H-Apc-D-Bal-D-Trp-Taz-NH2, the “final HPLC purity” value amounted to 99%.

As for H-Inp-D-1Nal-D-Trp-2Thi-Apc-NH2, the “final HPLC purity” value amounted to 97%.

On to H-Inp-D-1Nal-D-Trp-2Thi-Lys-NH2, for which the “final HPLC purity” value turned out to be 99%.

Take H-Inp-D-1Nal-D-Trp-2Thi-NH2: the “final HPLC purity” value worked out at 98%.

Regarding H-Inp-D-1Nal-D-Trp-3Pal-Lys-NH2, the “final HPLC purity” value is listed as 96%.

Take H-Inp-D-1Nal-D-Trp-3Pal-NH2: the “final HPLC purity” value amounted to 98%.

For the substance H-Inp-D-1Nal-D-Trp-Phe-Apc-NH2, the “final HPLC purity” value is recorded as 98%.

Regarding H-Inp-D-1Nal-D-Trp-Taz-Apc-NH2, the “final HPLC purity” value is listed as 98%.

For H-Inp-D-1Nal-D-Trp-Taz-Lys-NH2, the “final HPLC purity” value came to 99%.

Regarding H-Inp-D-2Nal-D-Bal-Phe-NH2, the “final HPLC purity” value stood at 99%.

H-Inp-D-2Nal-D-Bpa-Phe-Lys-NH2: the “final HPLC purity” value came to 99%.

For the substance H-Inp-D-2Nal-D-Dip-Phe-NH2, the “final HPLC purity” value was 99%.

Consider H-Inp-D-2Nal-D-Trp-2Thi-NH2, for which the “final HPLC purity” value came out at 99%.

Regarding H-Inp-D-2Nal-D-Trp-3Pal-Lys-NH2, the “final HPLC purity” value was 97%.

Turning to H-Inp-D-2Nal-D-Trp-3Pal-NH2, the “final HPLC purity” value is reported as 99%.

Take H-Inp-D-2Nal-D-Trp-4Pal-Lys-NH2: the “final HPLC purity” value amounted to 99%.

Consider H-Inp-D-2Nal-D-Trp-4Pal-NH2, for which the “final HPLC purity” value was 98%.

Turning to H-Inp-D-2Nal-D-Trp-Orn-Lys-NH2, the “final HPLC purity” value worked out at 98%.

As for H-Inp-D-2Nal-D-Trp-Pff-Lys-NH2, the “final HPLC purity” value was 98%.

In the case of H-Inp-D-2Nal-D-Trp-Pff-NH2, the “final HPLC purity” value was found to be 99%.

For H-Inp-D-2Nal-D-Trp-Phe-Apc-NH2, the “final HPLC purity” value is 98%.

With H-Inp-D-2Nal-D-Trp-Taz-Lys-NH2, the “final HPLC purity” value is 97%.

With H-Inp-D-2Nal-D-Trp-Taz-NH2, the “final HPLC purity” value was determined as 98%.

As to H-Inp-D-2Nal-D-Trp-Thi-Lys-NH2, the “final HPLC purity” value worked out at 98%.

Regarding H-Inp-D-2Nal-D-Trp-Thr(Bzl)-Lys-NH2, the “final HPLC purity” value is 98%.

Consider H-Inp-D-2Nal-D-Trp-Thr(Bzl)-NH2, for which the “final HPLC purity” value stood at 99%.

Regarding H-Inp-D-Bal-D-Trp-2Thi-Apc-NH2, the “final HPLC purity” value is on record as 97%.

For the substance H-Inp-D-Bal-D-Trp-2Thi-Lys-NH2, the “final HPLC purity” value is reported as 99%.

On to H-Inp-D-Bal-D-Trp-Phe-Apc-NH2, for which the “final HPLC purity” value was determined as 97%.

As for H-Inp-D-Bal-D-Trp-Phe-Lys-NH2, the “final HPLC purity” value stood at 99%.

Turning to H-Inp-D-Bal-D-Trp-Phe-NH2, the “final HPLC purity” value turned out to be 97%.

With H-Inp-D-Bal-D-Trp-Taz-Apc-NH2, the “final HPLC purity” value was found to be 99%.

As for H-Inp-D-Bal-D-Trp-Taz-Lys-NH2, the “final HPLC purity” value is reported as 99%.

Take H-Inp-D-Bip-D-Trp-Phe-Lys-NH2: the “final HPLC purity” value is 99%.

Regarding H-Inp-D-Bip-D-Trp-Phe-NH2, the “final HPLC purity” value is listed as 99%.

In the case of H-Inp-D-Bpa-D-Trp-Phe-Lys-NH2, the “final HPLC purity” value is 95%.

With H-Inp-D-Dip-D-Trp-Phe-Lys-NH2, the “final HPLC purity” value stood at 98%.

As for H-Inp-D-Dip-D-Trp-Phe-NH2, the “final HPLC purity” value turned out to be 98%.

The record behind these values is patent US9409948 (dated 2016).
